Reference: PubChem BioAssay AID504744 (Drosophila RNAi Screening Center, 2011)
In all, the deposit lists about 23,000 reagents; below is an unselected part of those that have a named target and a result. Of all reagents, 98 (0.43%) were called active. 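Only hit calls are given; the phospho-dAkt signals, z-scores and hit direction were not deposited.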 A plus sign joins genes that one reagent is predicted to hit. Reagent sequences are not shown.

Purpose: 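Identify dsRNAs that increase or decrease phospho-dAkt after insulin treatment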 (primary screen)
System: Drosophila Kc167 cells
Reagent: long dsRNA against Drosophila genes, 250 ng dsRNA per well of a 384-well plate
Duration: 3 days of knock-down, then overnight serum-free starvation before stimulation
Treatment: bovine insulin at 387 nM for 10 minutes after 12 h without serum
Measurement: 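Per-well phospho-dAkt level from an in-cell fluorescent antibody stain, divided by a DNA-dye signal; log2 residuals turned into z-scores that take cell number into account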
Hit rule: 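Under insulin, a gene counts as a hit if the average z-score of two replicates lies above 2.5 or below -2.5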

| Target gene | DRSC id | activity call |
| --- | --- | --- |
| Polr2B | DRSC16831 | inactive |
| CG13806 | DRSC08341 | inactive |
| Coq9 | DRSC22913 | inactive |
| Pgant2 | DRSC00587 | inactive |
| Cp190 | DRSC16607 | inactive |
| CG18507 | DRSC01334 | inactive |
| CG18507 | DRSC01914 | inactive |
| nw | DRSC06749 | inactive |
| nw | DRSC06896 | inactive |
| Or13a | DRSC20265 | inactive |
| CG16775 | DRSC10225 | inactive |
| CtsL1 | DRSC05462 | inactive |
| CtsL1 | DRSC07363 | inactive |
| CG32176 | DRSC10057 | inactive |
| CG32176 | DRSC10058 | inactive |
| f | DRSC19174 | inactive |
| f | DRSC19516 | active |
| f | DRSC20331 | inactive |
| beta-Man | DRSC12208 | inactive |
| beta-Man | DRSC12209 | inactive |
| CG7084 | DRSC16194 | inactive |
| CG8726 | DRSC07250 | inactive |
| su(Hw) | DRSC17074 | inactive |
| CG3309 | DRSC18301 | inactive |
| Lcp2 | DRSC07456 | inactive |
| CG3397 | DRSC15487 | inactive |
| CG30431 | DRSC04902 | inactive |
| CG30431 | DRSC04904 | inactive |
| ProtB | DRSC03373 | inactive |
| CG15461 | DRSC20532 | inactive |
| RnpS1 | DRSC15154 | inactive |
| CG12171 | DRSC12200 | inactive |
| amrt | DRSC19378 | inactive |
| CG6583 | DRSC02972 | inactive |
| CG5890 | DRSC15909 | inactive |
| ds | DRSC00815 | inactive |
| CG13893 | DRSC08363 | inactive |
| CG9205 | DRSC08642 | inactive |
| Pka-R1 | DRSC11674 | inactive |
| Pka-R1 | DRSC11875 | inactive |
| rogdi | DRSC10906 | inactive |
| Vmat + CG13330 | DRSC06365 | inactive |
| CG10151 | DRSC05974 | inactive |
| Obp50a | DRSC22152 | inactive |
| Ada2b | DRSC16531 | inactive |
| Mvd | DRSC20096 | inactive |
| Ir60e | DRSC04227 | inactive |
| Spindly | DRSC00430 | inactive |
| CG4360 | DRSC15566 | inactive |
| CG15344 (retired record) | DRSC18029 | inactive |
| Ubr1 | DRSC20148 | inactive |
| CG15196 | DRSC19643 | inactive |
| CG34135 + Nasp | DRSC16397 | inactive |
| CG3939 | DRSC18498 | inactive |
| CG3149 | DRSC17732 | inactive |
| PPP1R15 | DRSC04422 | inactive |
| CG34057 | DRSC08375 | inactive |
| CG42579 | DRSC20391 | inactive |
| Orc6 | DRSC07497 | inactive |
| CG42493 | DRSC05309 | inactive |
| mAcon1 | DRSC01853 | inactive |
| Cyp4ad1 | DRSC07369 | inactive |
| Mcm2 | DRSC16734 | inactive |
| CG12239 | DRSC17832 | inactive |
| Vha36-1 | DRSC07098 | inactive |
| CG34025 | DRSC08014 | inactive |
| CG32263 | DRSC22431 | inactive |
| CG8736 | DRSC07255 | inactive |
| Sp212 | DRSC22930 | inactive |
| CG34223 | DRSC05268 | inactive |
| CG5265 | DRSC15756 | inactive |
| Prat | DRSC16797 | inactive |
| lama | DRSC11361 | inactive |
| CG15649 | DRSC04240 | inactive |
| Remo | DRSC19710 | inactive |
| CG33306 | DRSC01899 | inactive |
| AstA-R1 | DRSC17278 | inactive |
| AstA-R1 | DRSC17727 | inactive |
| mRpL24 | DRSC03113 | inactive |
| CG13679 | DRSC10037 | inactive |
| CG13679 | DRSC22749 | inactive |
| Osi15 | DRSC12178 | inactive |
| CG31199 | DRSC15284 | inactive |
| CG14153 | DRSC10155 | inactive |
| CG14153 | DRSC22595 | inactive |
| CG10338 | DRSC02039 | inactive |
| CG6059 | DRSC15958 | inactive |
| Cp38 | DRSC18453 | inactive |
| CG13727 | DRSC10055 | inactive |
| CG30480 | DRSC06736 | inactive |
| l(3)87Df | DRSC16982 | inactive |
| SoxN | DRSC03440 | inactive |
| SoxN | DRSC21779 | inactive |
| Bug22 | DRSC02842 | inactive |
| Lrpprc2 | DRSC18605 | inactive |
| Sfp53D | DRSC05625 | inactive |
| tara | DRSC17076 | inactive |
| CG11449 | DRSC11662 | inactive |
| lmd | DRSC15618 | inactive |
| ND-SGDH | DRSC11102 | inactive |
| CG42516 + Pbp49 | DRSC06073 | inactive |
| CG18549 | DRSC15347 | inactive |
| CG34436 | DRSC15164 | inactive |
| tay | DRSC20142 | inactive |
| NiPp1 | DRSC07307 | inactive |
| CG32700 | DRSC17857 | inactive |
| CG32700 | DRSC17858 | inactive |
| Ilp6 | DRSC17906 | inactive |
| CG14907 + Mettl4 | DRSC15026 | inactive |
| CG14907 + Mettl4 | DRSC15027 | inactive |
| Vha16-5 | DRSC02986 | inactive |
| CG44838 | DRSC10330 | inactive |
| CG44838 | DRSC10371 | inactive |
| CG9776 | DRSC12127 | inactive |
| mex1 | DRSC11368 | inactive |
| Rpn2 | DRSC16839 | inactive |
| CG17768 + LSm-4 | DRSC02845 | inactive |
| Sec3 | DRSC10384 | inactive |
| CG13793 | DRSC02297 | inactive |
| CG7910 | DRSC16341 | inactive |
| Src64B | DRSC08700 | inactive |
| Lk | DRSC10022 | inactive |
| CG33453 | DRSC05782 | inactive |
| cid | DRSC05429 | inactive |
| cid | DRSC07592 | inactive |
| CG30154 | DRSC05889 | inactive |
| CG9970 | DRSC08644 | inactive |
| BEAF-32 + CG42254 (retired record) | DRSC05503 | inactive |
| CG14322 | DRSC14801 | inactive |
| ZC3H3 | DRSC10696 | inactive |
| Dhrs4 | DRSC09773 | inactive |
| CG42505 + CG42504 + CG31358 | DRSC15235 | inactive |
| CG42505 + CG42504 + CG31358 | DRSC15308 | inactive |
| CG42505 + CG42504 + CG31358 | DRSC15309 | inactive |
| sage | DRSC14580 | inactive |
| CG11771 | DRSC14379 | inactive |
| CG6287 | DRSC02947 | inactive |
| DUBAI | DRSC07281 | inactive |
| CG31207 | DRSC21886 | inactive |
| VhaPPA1-1 | DRSC16170 | inactive |
| Ptth | DRSC00356 | inactive |
| COX6AL | DRSC21454 | inactive |
| CG15225 | DRSC04232 | inactive |
| CDK2AP1 | DRSC19800 | inactive |
| CG31601 | DRSC03678 | inactive |
| Aos1 | DRSC14113 | inactive |
| eIF4H1 | DRSC20276 | inactive |
| CG31360 | DRSC13255 | inactive |
| Or63a | DRSC08681 | inactive |
| CG15465 | DRSC18048 | inactive |
| yrt | DRSC16559 | inactive |
| CR42785 | DRSC04962 | inactive |
| CG6765 | DRSC10706 | inactive |
| CG15330 | DRSC18014 | inactive |
| Dhit | DRSC07411 | inactive |
| CG7203 | DRSC03026 | inactive |
| CG1695 | DRSC20538 | inactive |

Entries listed so far whose gene name starts with I or i:
| Target gene | DRSC id | activity call |
| --- | --- | --- |
| Ir60e | DRSC04227 | inactive |
| Ilp6 | DRSC17906 | inactive |
